Test results published in patent US10416175B2, “Opioid detection” (Randox Laboratories Limited, priority 2015, dated 2019).

Legend:
[1] = system: antibody raised against Immunogen-2; test: Competitive ELISA with polyclonal antibody raised against Immunogen-2, Tracer-1 as detecting agent; format: binding, sheep
Experimental: Pre-immunization blood samples are collected from sheep. In order to generate polyclonal antisera, 2 mgs of the immunogen (structure 1) is prepared in PBS, mixed at a ratio of 50% immunogen in PBS to 50% Freund's Complete adjuvant (Sigma, Product Number F5881) and emulsified by repeatedly passing the mixture through a tip on the end of a 1 ml syringe, until it reaches the required semi-solid consistency. 1.1 ml of the emulsified mixture is injected intramuscularly into each host animal (sheep) as the primary immunisation dose. Further injections (boosts) are prepared (1 mg of immunogen is prepared in PBS and mixed at a ratio of 50% Immunogen in PBS/50% Freunds Incomplete adjuvant, Sigma, Product Number—F5506). Boost injections are delivered intramuscularly at monthly intervals, 1 ml per animal. Serum is sampled monthly by collection of whole blood from the jugular vein for evaluation of the antibody titre. The degree of antibody purification required depends on the intended application. For many purposes, there is no requirement for purification of the serum, however, in other cases, such as, where the antibody is to be immobilised on a solid support, purification steps (such as caprylic acid/ammonium sulphate precipitation) can be taken to remove undesired material and eliminate non-specific binding. In another embodiment, the purification is by immunoglobulin precipitation, antigen-specific affinity purification, column chromatography, such as, size-exclusion chromatography or ion exchange chromatography.
The polyclonal antibody raised against Immunogen-2 of Example 9 was removed from fridge or freezer and brought to room temperature. The antibody was diluted to 2.5 μg/ml in 10 mM Tris pH 8.5 and all appropriate wells are coated at 125 μl/well at 37° C. for 2 hours or at 4° C. overnight. The plate was washed 4 times over a period of 10 minutes with working strength tris-buffered saline and tween 20 (TBST) wash buffer and tapped dry. 50 μl of working strength TBST was pipetted into the appropriate wells. Dilutions of target analyte and potential crossreactant(s) were prepared in working strength TBST and pipetted (50 μl) into the appropriate wells beginning with the lowest concentration to the highest concentration. Hapten-HRP (Tracer-1) conjugate at the appropriate concentration was prepared in conjugate dilution buffer and 75 μl into pipetted into appropriate wells. The plate was tapped gently to mix contents, sealed and incubated at 25° C. for 1 hour. The plate was washed 6 times over a 10-15 minute period (3 quick washes followed by 3 additional washes over 12 minutes) and tapped dry thoroughly onto tissue paper. Trimethylbenzidine (TMB) solution (125 μl) was added to each well and tapped gently, and the plate was incubated at room temperature for 20 minutes in the dark. The reaction was stopped by addition of 125 μl of 0.2 M sulphuric acid to each well and the absorbance measured at 450 nm using an ELISA plate reader (Biotek Elx800).

[2] = system: antibody specific to mitragynine; test: ELISA for mitragynine and 8-desmethylmitragynine (polyclonal antibody to mitragynine); format: binding
Text: In one embodiment, the antibodies and immunoassay methods and kits for mitragynine (kratom), are as described in U.S. patent application Ser. No. 14/184,422, filed Feb. 19, 2014 entitled “Immunoassay for Detecting Kratom, its Constituents and their Use” the entire contents of which are incorporated herein by reference. In particular, U.S. patent application Ser. No. 14/184,422 describes a polyclonal antibody which that binds specifically to an epitope of one or more of mitragynine, 8-desmethylmitragynine, 8-sulphonylmitragynine, and 8-glucuronidylmitragynine which was raised to an immunogen having the structure of:
[drawing 5] • wherein HRP is horseradish peroxidase.

Compound: CNC[C@@H]1CCCC[C@@]1(O)c1cccc(OC)c1 (racemic) [N-Desmethyltramadol, (±)-cis-2-[(methylamino)methyl]-1-(3-methoxyphenyl)cyclohexanol]
- A450 ([1]; 0.156 ng/ml analyte): 1.884
- A450 ([1]; 0.313 ng/ml analyte): 1.891
- A450 ([1]; 0.625 ng/ml analyte): 1.917
- A450 ([1]; 1.250 ng/ml analyte): 1.930
- A450 ([1]; 2.500 ng/ml analyte): 1.908
- A450 ([1]; 5.000 ng/ml analyte): 1.885
- A450 ([1]; 10.000 ng/ml analyte): 1.896

Compound: CC[C@@H]1CN2CCc3c([nH]c4cccc(O)c34)[C@@H]2C[C@@H]1/C(=C\OC)C(=O)OC [8-Desmethylmitragynine, 8-desmethylmitragynine]
- A450 ([2]; 0.313 ng/ml analyte): 1.116
- A450 ([2]; 0.625 ng/ml analyte): 0.956
- A450 ([2]; 1.250 ng/ml analyte): 0.816
- A450 ([2]; 2.500 ng/ml analyte): 0.633
- A450 ([2]; 5.000 ng/ml analyte): 0.441
- A450 ([2]; 10.000 ng/ml analyte): 0.279
- A450 ([2]; 20.000 ng/ml analyte): 0.191

Compound: CC[C@@H]1CN2CCc3c([nH]c4cccc(OC)c34)[C@@H]2C[C@@H]1/C(=C\OC)C(=O)OC [Mitragynine, mitragynine]
- A450 ([2]; 0.313 ng/ml analyte): 1.216
- A450 ([2]; 0.625 ng/ml analyte): 1.012
- A450 ([2]; 1.250 ng/ml analyte): 0.787
- A450 ([2]; 2.500 ng/ml analyte): 0.590
- A450 ([2]; 5.000 ng/ml analyte): 0.401
- A450 ([2]; 10.000 ng/ml analyte): 0.273
- A450 ([2]; 20.000 ng/ml analyte): 0.177

Compound: (±)-cis-2-[(dimethylamino)methyl]-1-(3 hydroxyphenyl)-cyclohexanol [O-Desmethyltramadol]
- A450 ([1]; 0.156 ng/ml analyte): 1.049
- A450 ([1]; 0.313 ng/ml analyte): 0.735
- A450 ([1]; 0.625 ng/ml analyte): 0.479
- A450 ([1]; 1.250 ng/ml analyte): 0.308
- A450 ([1]; 2.500 ng/ml analyte): 0.193
- A450 ([1]; 5.000 ng/ml analyte): 0.122
- A450 ([1]; 10.000 ng/ml analyte): 0.076
